Data as given in PubChem BioAssay AID1508597 (Cure First, 2020)
This is an unselected part of about 2,100 deposited reagents. 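Calls flag viability under 80% in either arm, not effects specific to rucaparib; the reference for percent is not stated.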 Some reagents were tested in more than one well and are listed for each. Not stated in the record: the 100% reference.

- Purpose: 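Knock-downs altering ovarian cancer cell survival with or without PARP inhibitor rucaparib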 (primary screen)
- System: human ovarian carcinoma lines grown from tumours: OCI-P5x (papillary serous) and OCI-C5x (clear cell)
- Knock-down reagent: siRNA pool against human genes, 1.25 pmol siRNA per well
- Duration: 72 h or 96 h, depending on the cell culture
- Conditions: rucaparib 20 µM (about IC30) or vehicle, present until read-out
- Detection: 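ATP luminescence measured at 72 or 96 h according to the culture, then normalised and expressed as percent viability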
- Reading the numbers: viability, normalised: higher = more viable cells remaining
- Active means: 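a well counts as a hit if its normalised viability is under 80 percent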
- Meaning of the calls: active = viability under 80%; inactive = viability 80% or more

no.	gene	rucaparib or vehicle	cell line	technical replicate	viability, normalised (%)	call
1	CDK13 (cyclin dependent kinase 13)	Rucaparib	OCI-C5x (clear cell)	1	42.3	active
2	CDK13 (cyclin dependent kinase 13)	Rucaparib	OCI-C5x (clear cell)	2	48.1	active
3	CDK13 (cyclin dependent kinase 13)	Rucaparib	OCI-C5x (clear cell)	3	52.3	active
4	CDK13 (cyclin dependent kinase 13)	Rucaparib	OCI-P5x (serous)	1	99.8	inactive
5	CDK13 (cyclin dependent kinase 13)	Rucaparib	OCI-P5x (serous)	2	94.9	inactive
6	CDK13 (cyclin dependent kinase 13)	Rucaparib	OCI-P5x (serous)	3	94.8	inactive
7	CDK13 (cyclin dependent kinase 13)	Vehicle	OCI-C5x (clear cell)	1	64.1	active
8	CDK13 (cyclin dependent kinase 13)	Vehicle	OCI-C5x (clear cell)	2	50	active
9	CDK13 (cyclin dependent kinase 13)	Vehicle	OCI-C5x (clear cell)	3	56.4	active
10	CDK13 (cyclin dependent kinase 13)	Vehicle	OCI-P5x (serous)	1	64.6	active
11	CDK13 (cyclin dependent kinase 13)	Vehicle	OCI-P5x (serous)	2	68.6	active
12	CDK13 (cyclin dependent kinase 13)	Vehicle	OCI-P5x (serous)	3	82.8	inactive
13	MSL3 (MSL complex subunit 3)	Rucaparib	OCI-C5x (clear cell)	1	47.7	active
14	MSL3 (MSL complex subunit 3)	Rucaparib	OCI-C5x (clear cell)	2	48.4	active
15	MSL3 (MSL complex subunit 3)	Rucaparib	OCI-C5x (clear cell)	3	45.9	active
16	MSL3 (MSL complex subunit 3)	Rucaparib	OCI-P5x (serous)	1	56.3	active
17	MSL3 (MSL complex subunit 3)	Rucaparib	OCI-P5x (serous)	2	65.4	active
18	MSL3 (MSL complex subunit 3)	Rucaparib	OCI-P5x (serous)	3	66	active
19	MSL3 (MSL complex subunit 3)	Vehicle	OCI-C5x (clear cell)	1	50.2	active
20	MSL3 (MSL complex subunit 3)	Vehicle	OCI-C5x (clear cell)	2	59.9	active
21	MSL3 (MSL complex subunit 3)	Vehicle	OCI-C5x (clear cell)	3	51.9	active
22	MSL3 (MSL complex subunit 3)	Vehicle	OCI-P5x (serous)	1	42.6	active
23	MSL3 (MSL complex subunit 3)	Vehicle	OCI-P5x (serous)	2	61.5	active
24	MSL3 (MSL complex subunit 3)	Vehicle	OCI-P5x (serous)	3	64.7	active
25	DICER1 (dicer 1, ribonuclease III)	Rucaparib	OCI-C5x (clear cell)	1	66.4	active
26	DICER1 (dicer 1, ribonuclease III)	Rucaparib	OCI-C5x (clear cell)	2	64.1	active
27	DICER1 (dicer 1, ribonuclease III)	Rucaparib	OCI-C5x (clear cell)	3	64.4	active
28	DICER1 (dicer 1, ribonuclease III)	Rucaparib	OCI-P5x (serous)	1	68.8	active
29	DICER1 (dicer 1, ribonuclease III)	Rucaparib	OCI-P5x (serous)	2	75.8	active
30	DICER1 (dicer 1, ribonuclease III)	Rucaparib	OCI-P5x (serous)	3	86.3	inactive
31	DICER1 (dicer 1, ribonuclease III)	Vehicle	OCI-C5x (clear cell)	1	55.4	active
32	DICER1 (dicer 1, ribonuclease III)	Vehicle	OCI-C5x (clear cell)	2	47.4	active
33	DICER1 (dicer 1, ribonuclease III)	Vehicle	OCI-C5x (clear cell)	3	44.9	active
34	DICER1 (dicer 1, ribonuclease III)	Vehicle	OCI-P5x (serous)	1	64.3	active
35	DICER1 (dicer 1, ribonuclease III)	Vehicle	OCI-P5x (serous)	2	76.8	active
36	DICER1 (dicer 1, ribonuclease III)	Vehicle	OCI-P5x (serous)	3	68.9	active

Continued (6 carried over from the part before).
no.	gene	rucaparib or vehicle	cell line	technical replicate	viability, normalised (%)	call
31	DICER1 (dicer 1, ribonuclease III)	Vehicle	OCI-C5x (clear cell)	1	55.4	active
32	DICER1 (dicer 1, ribonuclease III)	Vehicle	OCI-C5x (clear cell)	2	47.4	active
33	DICER1 (dicer 1, ribonuclease III)	Vehicle	OCI-C5x (clear cell)	3	44.9	active
34	DICER1 (dicer 1, ribonuclease III)	Vehicle	OCI-P5x (serous)	1	64.3	active
35	DICER1 (dicer 1, ribonuclease III)	Vehicle	OCI-P5x (serous)	2	76.8	active
36	DICER1 (dicer 1, ribonuclease III)	Vehicle	OCI-P5x (serous)	3	68.9	active
37	POLK (DNA polymerase kappa)	Rucaparib	OCI-C5x (clear cell)	1	48	active
38	POLK (DNA polymerase kappa)	Rucaparib	OCI-C5x (clear cell)	1	62.5	active
39	POLK (DNA polymerase kappa)	Rucaparib	OCI-C5x (clear cell)	2	38.2	active
40	POLK (DNA polymerase kappa)	Rucaparib	OCI-C5x (clear cell)	2	53.5	active
41	POLK (DNA polymerase kappa)	Rucaparib	OCI-C5x (clear cell)	3	60.1	active
42	POLK (DNA polymerase kappa)	Rucaparib	OCI-C5x (clear cell)	3	33.1	active
43	POLK (DNA polymerase kappa)	Rucaparib	OCI-P5x (serous)	1	64.2	active
44	POLK (DNA polymerase kappa)	Rucaparib	OCI-P5x (serous)	1	80.7	inactive
45	POLK (DNA polymerase kappa)	Rucaparib	OCI-P5x (serous)	2	63.9	active
46	POLK (DNA polymerase kappa)	Rucaparib	OCI-P5x (serous)	2	80.6	inactive
47	POLK (DNA polymerase kappa)	Rucaparib	OCI-P5x (serous)	3	73.4	active
48	POLK (DNA polymerase kappa)	Rucaparib	OCI-P5x (serous)	3	67.3	active
49	POLK (DNA polymerase kappa)	Vehicle	OCI-C5x (clear cell)	1	41.1	active
50	POLK (DNA polymerase kappa)	Vehicle	OCI-C5x (clear cell)	1	62.3	active
51	POLK (DNA polymerase kappa)	Vehicle	OCI-C5x (clear cell)	2	55.7	active
52	POLK (DNA polymerase kappa)	Vehicle	OCI-C5x (clear cell)	2	50.9	active
53	POLK (DNA polymerase kappa)	Vehicle	OCI-C5x (clear cell)	3	43.7	active
54	POLK (DNA polymerase kappa)	Vehicle	OCI-C5x (clear cell)	3	45.5	active
55	POLK (DNA polymerase kappa)	Vehicle	OCI-P5x (serous)	1	72.8	active
56	POLK (DNA polymerase kappa)	Vehicle	OCI-P5x (serous)	1	56.1	active
57	POLK (DNA polymerase kappa)	Vehicle	OCI-P5x (serous)	2	54.1	active
58	POLK (DNA polymerase kappa)	Vehicle	OCI-P5x (serous)	2	57	active
59	POLK (DNA polymerase kappa)	Vehicle	OCI-P5x (serous)	3	53.4	active
60	POLK (DNA polymerase kappa)	Vehicle	OCI-P5x (serous)	3	69.7	active
